In the supplement of paper PMC9135407:
Where “and” joins values, the source holds several entries; their conditions need not be identical. Equal entries are not always repeated. Structures can show the parent of a compound that is named as a salt. ± gives the standard deviation of the averaged measurements. The list shows a part of the results. Plates or batches differ in their baseline, so values are only roughly comparable.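 Primary human stellate myofibroblasts activated in culture; inactivation shown by regained lipid droplets. Readout: fraction of Hoechst-counted cells exceeding a per-plate Bodipy threshold, duplicate wells, each plate with DMSO negative and nortriptyline positive controls. Hits: control-normalized score beyond the plate's top-tenth-percentile nortriptyline wells, or among its three best wells. Final well concentrations unstated.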

Tested on: primary human hepatic stellate cells (donor 1)
Assay: percent Bodipy-positive cells; higher = more lipid droplet accumulation
Conditions: 48 h
Experimental: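 Primary lipid accumulation screen in primary human hepatic stellate cell myofibroblasts (donor 1, passage 8) in 384-well plates. 100 nL of library compound was pin-transferred into 30 µL medium in duplicate, and cells were treated for 48 h. The 'Scaled' score combines distance from plate baseline, toxicity and reproducibility penalties, and is normalised to nortriptyline (positive) and DMSO (negative) controls on each plate. A hit is defined as scaled >0.85 or among the top 3 wells per plate.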

[1] = library stock concentration: 10 mM
[2] = library stock concentration: 3.33 mM
[3] = library stock concentration: 80 uM
[4] = library stock concentration: 400 uM
[5] = library stock concentration: 2 mM
[6] = library stock concentration: 1 mM

Question: For `COC(=O)/C=C/c1cccc(N(Cc2ccc(-c3ccc(N(C)C)cc3)cc2)C(=O)C2CCCCC2)c1` [Fexaramine], which “percent Bodipy-positive cells” value [1] is on record?
Answer: 8.33 ± 0.36%

Question: `C[C@](N)(Cc1ccc(O)c(O)c1)C(=O)O` [Methyldopa (L,-)] was tested. Which “percent Bodipy-positive cells” value did it give?
Answer: 27 ± 13%

Question: Which “percent Bodipy-positive cells” value [1] does the source give for `C[C@](N)(Cc1ccc(O)c(O)c1)C(=O)O` [L-alpha-Methyl DOPA] here?
Answer: 51.3 ± 20%

Question: Which “percent Bodipy-positive cells” value (library stock concentration: 9.5 mM) does the source give for `C[C@](N)(Cc1ccc(O)c(O)c1)C(=O)O` [Methyldopa] here?
Answer: 9% and 5.03%

Question: For `Cc1ccc(NC(=O)c2ccc(CN3CCN(C)CC3)cc2)cc1Nc1nccc(-c2cccnc2)n1` [Imatinib (STI571)] [listing 1 of 2 here], which “percent Bodipy-positive cells” value [1] is on record?
Answer: 86.2 ± 6.2%

Question: How did the “percent Bodipy-positive cells” value [2] turn out when `Cl.Fc1ccc([C@@H]2CCNC[C@H]2COc2ccc3c(c2)OCO3)cc1` [Paroxetine HCl] was run?
Answer: 68.2 ± 9.7%

Question: `CCOC(=O)c1cnc2ccc(-c3cncc(NS(=O)(=O)c4ccccc4)c3)cn12` was tested. Which “percent Bodipy-positive cells” value [2] did it give?
Answer: 80.2 ± 7.7%

Question: With `COc1cc2c(c(OC)c1OC)-c1c(cc3c(c1OC)OCO3)CC(C)C(C)C2` (configuration not stated) [Schisandrin B (Sch B)] as the compound, how does the “percent Bodipy-positive cells” value [2] read?
Answer: 5.9 ± 0.34%

Question: And the “percent Bodipy-positive cells” value [1]?
Answer: 36.6 ± 14%

Question: Which “percent Bodipy-positive cells” value [1] does the source give for `O=c1[nH]nc(Sc2ncc([N+](=O)[O-])s2)n1-c1ccc2c(c1)OCCO2` here?
Answer: 89.1 ± 1.6%

Question: What does the source list for `Clc1ccc(C(Cn2ccnc2)OCc2ccsc2Cl)c(Cl)c1` (configuration not stated) [Tioconazole]?
Answer: percent Bodipy-positive cells [2]: 7.1 ± 2.5%; percent Bodipy-positive cells (library stock concentration: 5.2 mM): 6.15% and 12.5%; percent Bodipy-positive cells [1]: 18.8 ± 0.75%

Question: Which “percent Bodipy-positive cells” value [3] does the source give for `COc1cc(C(=O)N2CCC(N3CCN(C)CC3)CC2)ccc1Nc1ncc2c(n1)N(C)c1ccccc1C(=O)N2C` [listing 1 of 2 here] here?
Answer: 11.1 ± 2.5%

Question: And the “percent Bodipy-positive cells” value [4]?
Answer: 15 ± 0.77%

Question: And the “percent Bodipy-positive cells” value [5]?
Answer: 44.7 ± 4.3%

Question: Which “percent Bodipy-positive cells” value [1] does the source give for `O=C(O)CNC(=O)C(CS)Cc1ccccc1` (racemic) [DL-Thiorphan] here?
Answer: 15.2 ± 5.1%

Question: For `CCCC1C(=O)N2C(N(C)C)=Nc3ccc(C)cc3N2C1=O` (configuration not stated) [Azapropazone], which “percent Bodipy-positive cells” value is on record?
Answer: 9.2 ± 1.1%

Question: Which “percent Bodipy-positive cells” value [2] does the source give for `COc1cc2c(cc1OC)CC(=O)N(CCCN(C)C[C@H]1Cc3cc(OC)c(OC)cc31)CC2` [Ivabradine HCl] here?
Answer: 13.1 ± 8.3%

Question: What about the “percent Bodipy-positive cells” value [1] of the same compound?
Answer: 18.8 ± 1.1%

Question: `CCCCCCCCCC(=O)NC(CN1CCOCC1)C(O)c1ccccc1` (configuration not stated) [PDMP (hydrochloride)] was tested. Which “percent Bodipy-positive cells” value [6] did it give?
Answer: 9.94 ± 4.1%

Question: With `COc1cc(C(=O)N2CCC(N3CCN(C)CC3)CC2)ccc1Nc1ncc2c(n1)N(C)c1ccccc1C(=O)N2C` [listing 2 of 2 here] as the compound, how does the “percent Bodipy-positive cells” value [1] read?
Answer: 91.56 ± 0.34%

Question: With `C[C@H]1c2cccc(O)c2C(=O)C2=C(O)[C@]3(O)C(=O)C(C(N)=O)=C(O)[C@@H](N(C)C)[C@@H]3[C@@H](O)[C@@H]21` [Doxycycline HCl] as the compound, how does the “percent Bodipy-positive cells” value [2] read?
Answer: 8.04 ± 3.5%

Question: What about the “percent Bodipy-positive cells” value (library stock concentration: 4.5 mM) of the same compound?
Answer: 7.33 ± 0.44%

Question: What about the “percent Bodipy-positive cells” value [1] of the same compound?
Answer: 30.7 ± 5.5%

Question: How did the “percent Bodipy-positive cells” value [1] turn out when `C[C@H]1c2cccc(O)c2C(=O)C2=C(O)[C@]3(O)C(=O)C(C(N)=O)=C(O)[C@@H](N(C)C)[C@@H]3[C@@H](O)[C@@H]21` [Doxycycline hydrochloride] was run?
Answer: 8.368 ± 0.016%

Question: For `C[C@H]1c2cccc(O)c2C(=O)C2=C(O)[C@]3(O)C(=O)C(C(N)=O)=C(O)[C@@H](N(C)C)[C@@H]3[C@@H](O)[C@@H]21`, which “percent Bodipy-positive cells” value [1] is on record?
Answer: 33.9 ± 5.5%

Question: How did the “percent Bodipy-positive cells” value turn out when `C[C@H]1c2cccc(O)c2C(=O)C2=C(O)[C@]3(O)C(=O)C(C(N)=O)=C(O)[C@@H](N(C)C)[C@@H]3[C@@H](O)[C@@H]21` [Doxycycline hyclate] was run?
Answer: 9.01 ± 1.8%

Question: For `N[C@@H](CSC(c1ccccc1)(c1ccccc1)c1ccccc1)C(=O)O` [S-Trityl-L-cysteine], which “percent Bodipy-positive cells” value [1] is on record?
Answer: 11.7 ± 1.8%

Question: With `O=C1/C(=C/c2cccs2)CCC/C1=C\c1cccs1` as the compound, how does the “percent Bodipy-positive cells” value [1] read?
Answer: 55.7 ± 35%

Question: How did the “percent Bodipy-positive cells” value [2] turn out when `O=C(c1ccc(Nc2nccc(-c3cc4ccccc4s3)n2)cc1)N1CCC(N2CCCC2)CC1` [IKK Inhibitor VII] was run?
Answer: 91.4 ± 5.2%

Question: Which “percent Bodipy-positive cells” value [6] does the source give for `CCCCCCCCCCCCC(=O)NC1CCOC1=O` [N-tridecanoyl-L-Homoserine lactone] here?
Answer: 12.6 ± 5.3%

Question: How did the “percent Bodipy-positive cells” value [2] turn out when `Cc1c(C(=O)NN2CCCCC2)nn(-c2ccc(Cl)cc2Cl)c1-c1ccc(Cl)cc1` [Rimonabant] was run?
Answer: 25.7 ± 8.3%

Question: And the “percent Bodipy-positive cells” value [1]?
Answer: 10.6 ± 0.14%

Question: For `Nc1ccc(C(=O)Nc2cccc(-c3nc(N4CCOCC4)c4oc5ncccc5c4n3)c2)cn1`, which “percent Bodipy-positive cells” value [1] is on record?
Answer: 87.85 ± 0.2%

Question: With `CCOC(=O)COc1ccc2c(=O)cc(-c3ccccc3)oc2c1` as the compound, how does the “percent Bodipy-positive cells” value [1] read?
Answer: 44.2 ± 9.8%

Question: `O=C(NCC1(c2nc(-c3ccccc3)cs2)CCOCC1)c1cccc(-c2noc(C(F)(F)F)n2)c1` was tested. Which “percent Bodipy-positive cells” value [2] did it give?
Answer: 35.9 ± 3.6%

Question: And the “percent Bodipy-positive cells” value [1]?
Answer: 28.1 ± 0.97%

Question: How did the “percent Bodipy-positive cells” value [2] turn out when `CNCc1ccc(-c2cc(-c3nc(-c4ccc(S(=O)(=O)C(C)C)cc4)cnc3N)on2)cc1` was run?
Answer: 97.24 ± 0.74%

Question: How did the “percent Bodipy-positive cells” value [6] turn out when `CCCCCCCC/C=C\CCCCCCCC(=O)OC[C@H](CO)OC(C)=O` [1-Oleoyl 2-acetyl-glycerol] was run?
Answer: 9.93 ± 9.3%

Question: For `CCCCCCCC/C=C\CCCCCCCC(=O)OC[C@H](CO)OC(C)=O` [1-Oleoyl-2-acetyl-sn-glycerol], which “percent Bodipy-positive cells” value [6] is on record?
Answer: 6.22 ± 0.22%

Question: Which “percent Bodipy-positive cells” value [2] does the source give for `O=C(O)C(=O)O.[NH-][C@@H]1CCCC[C@H]1[NH-].[Pt+2]` [Oxaliplatin] here?
Answer: 13.8 ± 7.2%

Question: What about the “percent Bodipy-positive cells” value (library stock concentration: 5 mM) of the same compound?
Answer: 3.83 ± 0.12%

Question: And the “percent Bodipy-positive cells” value [1]?
Answer: 20.4% and 7.25%

Question: How did the “percent Bodipy-positive cells” value [1] turn out when `CSc1cc2c(cc1C(F)(F)F)N(C(=O)Nc1cccnc1)CC2` was run?
Answer: 14.7 ± 7.1%

Question: For `Cc1cc2nc3c(=O)[nH]c(=O)nc-3n(C)c2cc1C=O`, which “percent Bodipy-positive cells” value [1] is on record?
Answer: 11.1 ± 0.97%

Question: With `Cc1ccc(NC(=O)c2ccc(CN3CCN(C)CC3)cc2)cc1Nc1nccc(-c2cccnc2)n1` [Imatinib (STI571)] [listing 2 of 2 here] as the compound, how does the “percent Bodipy-positive cells” value [2] read?
Answer: 30 ± 12%

Question: Which “percent Bodipy-positive cells” value [2] does the source give for `Cc1ccc(NC(=O)c2ccc(CN3CCN(C)CC3)cc2)cc1Nc1nccc(-c2cccnc2)n1` [Imatinib Mesylate (STI571)] here?
Answer: 40.3 ± 7.7%

Question: With `Cc1ccc(NC(=O)c2ccc(CN3CCN(C)CC3)cc2)cc1Nc1nccc(-c2cccnc2)n1` as the compound, how does the “percent Bodipy-positive cells” value [4] read?
Answer: 7.3 ± 0.71%

Question: What about the “percent Bodipy-positive cells” value [5] of the same compound?
Answer: 29.4 ± 4.4%

Question: And the “percent Bodipy-positive cells” value [1]?
Answer: 93.4 ± 3.9%

Question: With `Cc1ccc(NC(=O)c2ccc(CN3CCN(C)CC3)cc2)cc1Nc1nccc(-c2cccnc2)n1` [Imatinib] as the compound, how does the “percent Bodipy-positive cells” value [3] read?
Answer: 15.1 ± 13%

Question: What about the “percent Bodipy-positive cells” value [4] of the same compound?
Answer: 18.4 ± 4%

Question: And the “percent Bodipy-positive cells” value [5]?
Answer: 24.86 ± 0.2%

Question: How did the “percent Bodipy-positive cells” value [2] turn out when `CC(C)C(=O)Oc1ccc(CO)cc1[C@H](CCN(C(C)C)C(C)C)c1ccccc1` [Fesoterodine Fumarate] was run?
Answer: 31.6 ± 4.9%

Question: For `Cc1nn(-c2ccccc2)c(C)c1C=NN1CCN(Cc2ccccc2)CC1`, which “percent Bodipy-positive cells” value [2] is on record?
Answer: 38.1 ± 3.4%

Question: Which “percent Bodipy-positive cells” value (library stock concentration: 100 uM) does the source give for `CCCCC/C=C\C/C=C\C/C=C\C=C\[C@@H](O)CCCC(=O)O` here?
Answer: 28.2 ± 28%

Question: `CCCCC[C@H](O)/C=C/[C@@H]1[C@H]2C/C(=C\CCCC(=O)O)C[C@H]2C[C@H]1O` [5-cis Carbaprostacyclin] was tested. Which “percent Bodipy-positive cells” value [6] did it give?
Answer: 16.3 ± 4%

Question: Which “percent Bodipy-positive cells” value [1] does the source give for `N=C(N)c1ccc(N2CCN(C3CCN(CC(=O)O)CC3)CC2)cc1` here?
Answer: 11.5 ± 5.8%

Question: `Fc1ccc(CN(C2=NCCN2)c2c(Cl)cccc2Cl)cc1` [IMID-4F hydrochloride] was tested. Which “percent Bodipy-positive cells” value [1] did it give?
Answer: 80.6 ± 4.3%

Question: Which “percent Bodipy-positive cells” value [2] does the source give for `CCc1c2c(nc3ccc(O)cc13)-c1cc3c(c(=O)n1C2)COC(=O)[C@]3(O)CC` here?
Answer: 32.5 ± 2.6%

Question: How did the “percent Bodipy-positive cells” value [6] turn out when `COC(=O)CCC[C@H](O)[C@H](O)CO` [5(S),6(R)-7-trihydroxymethyl Heptanoate] was run?
Answer: 10.7 ± 2.8%
